The text below walks through data of the supplement of paper PMC11061612.

This assay deals with NCI-H28 (Mesothelioma). The experiment in a line: Bliss excess, mean over the matrix (fraction); higher = more synergy. The method in brief: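 Cell lines grown in DMEM/F12 or RPMI with 10% FBS were plated in 1536-well plates and held 24 hours at 37°C, 5% CO2 before 72 hours of exposure to two-drug dose matrices, with DMSO typically at 0.2%. CellTiter-Glo 2.0 luminescence gave viability, which was converted to inhibition. Vehicle wells were set to 0 and blank wells to 1. Combination Emax is the second-highest inhibition in the matrix, and Bliss excess is the observed combination effect minus the expected EA + EB − EA·EB, where EA and EB are the single-agent effects.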

SMILES strings stand for the structures.

As for `COc1cc2ncnc(Nc3ccc(F)c(Cl)c3)c2cc1OCCCN1CCOCC1` [Gefitinib] + CC(C)n1c(=O)n(C)c2cnc3cc(F)c(-c4ccc(OCCCN5CCCCC5)nc4)cc3c21 [AZD1390] (first compound max 10 µM, 7x7, partner max 0.3 µM), the Bliss excess is -0.0618.
